The nature of this series: general procedure: Fmoc solid-phase peptide synthesis; Rink Amide resin; PyBOP / NMM. Conditions: whole synthesis, scale 0.1 mmole.

Square brackets hold non-standard residues; d marks the D form. Ends that are not written are not given here. * marks the point of attachment. FITC = O=C1OC2(c3ccc(O)cc3Oc3cc(O)ccc32)c2ccc(NC(=S)*)cc21; Hyp = O=C(O)[C@@H]1C[C@@H](O)CN1; Chg = N[C@H](C(=O)O)C1CCCCC1

For G[Hyp]AS[Chg]QSLMK(FITC)C-NH2, the crude mass is on record as 129.4 mg and the crude yield stood at 83%.

For the origin of these results see patent US7371728B2 (Kaohsiung Medical University, priority 2005, dated 2008).
